Numbering of substitutions follows the chain as printed. The list shows a part of the results. For part of these data: At the low end of the ranking the order means little.
Experiments:
Conditions in all cases: yeast three-hybrid, YBZ-1, SC-Leu-His + 0.5 mM 3-AT, 4 days
[1] = target: T1, PUM1 PUF domain R2-LLL N899L + Y900L + Q903L (UniProt Q14671)
T1 sequence: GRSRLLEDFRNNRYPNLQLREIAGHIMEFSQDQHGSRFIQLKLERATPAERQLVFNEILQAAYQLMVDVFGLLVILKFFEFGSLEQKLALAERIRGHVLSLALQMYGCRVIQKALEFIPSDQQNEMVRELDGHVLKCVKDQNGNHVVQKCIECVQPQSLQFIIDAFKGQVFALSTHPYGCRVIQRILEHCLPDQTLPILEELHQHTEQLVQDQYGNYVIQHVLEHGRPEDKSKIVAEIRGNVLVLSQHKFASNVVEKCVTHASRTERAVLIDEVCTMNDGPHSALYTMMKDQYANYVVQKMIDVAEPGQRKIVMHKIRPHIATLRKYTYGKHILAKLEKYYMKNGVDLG

[2] = target: T2, PUM1 PUF domain R2-LLY N899L + Y900L + Q903Y (UniProt Q14671)
T2 sequence: T1 sequence with L76Y

[3] = target: T3, PUM1 PUF domain R2-LWA N899L + Y900W + Q903A (Homo sapiens) (UniProt Q14671)
T3 sequence: T1 sequence with L73W, L76A

[4] = target: T4, PUM1 PUF domain R2-LWD N899L + Y900W + Q903D (UniProt Q14671)
T4 sequence: T1 sequence with L73W, L76D

[5] = target: T5, PUM1 PUF domain R2-LWE N899L + Y900W + Q903E (UniProt Q14671)
T5 sequence: T1 sequence with L73W, L76E

[6] = target: T6, PUM1 PUF domain R2-LWG N899L + Y900W + Q903G (UniProt Q14671)
T6 sequence: T1 sequence with L73W, L76G

[7] = target: T7, PUM1 PUF domain R2-LWH N899L + Y900W + Q903H (UniProt Q14671)
T7 sequence: T1 sequence with L73W, L76H

[8] = target: T8, PUM1 PUF domain R2-LWL N899L + Y900W + Q903L (UniProt Q14671)
T8 sequence: T1 sequence with L73W

[9] = target: T9, PUM1 PUF domain R2-LWM N899L + Y900W + Q903M (UniProt Q14671)
T9 sequence: T1 sequence with L73W, L76M

[10] = target: T10, PUM1 PUF domain R2-LWQ N899L + Y900W (UniProt Q14671)
T10 sequence: T1 sequence with L73W, L76Q

[11] = target: T11, PUM1 PUF domain R2-LWR N899L + Y900W + Q903R (Homo sapiens) (UniProt Q14671)
T11 sequence: T1 sequence with L73W, L76R

[12] = target: T12, PUM1 PUF domain R2-LWS N899L + Y900W + Q903S (Homo sapiens) (UniProt Q14671)
T12 sequence: T1 sequence with L73W, L76S

[13] = target: T13, PUM1 PUF domain R2-LWV N899L + Y900W + Q903V (UniProt Q14671)
T13 sequence: T1 sequence with L73W, L76V

[14] = target: T14, PUM1 PUF domain R2-LWY N899L + Y900W + Q903Y (UniProt Q14671)
T14 sequence: T1 sequence with L73W, L76Y

[15] = target: T15, PUM1 PUF domain R2-LYL N899L + Q903L (UniProt Q14671)
T15 sequence: T1 sequence with L73Y

[16] = target: T16, PUM1 PUF domain R2-MVW N899M + Y900V + Q903W (UniProt Q14671)
T16 sequence: T1 sequence with L72M, L73V, L76W

[17] = target: T17, PUM1 PUF domain R2-NRW Y900R + Q903W (UniProt Q14671)
T17 sequence: T1 sequence with L72N, L73R, L76W

[18] = target: T18, PUM1 PUF domain R2-NWP Y900W + Q903P (Homo sapiens) (UniProt Q14671)
T18 sequence: T1 sequence with L72N, L73W, L76P

[19] = target: T19, PUM1 PUF domain R2-PVM N899P + Y900V + Q903M (UniProt Q14671)
T19 sequence: T1 sequence with L72P, L73V, L76M

[20] = target: T20, PUM1 PUF domain R2-PWE N899P + Y900W + Q903E (UniProt Q14671)
T20 sequence: T1 sequence with L72P, L73W, L76E

[21] = target: T21, PUM1 PUF domain R2-RKA N899R + Y900K + Q903A (UniProt Q14671)
T21 sequence: T1 sequence with L72R, L73K, L76A

[22] = target: T22, PUM1 PUF domain R2-RKC N899R + Y900K + Q903C (UniProt Q14671)
T22 sequence: T1 sequence with L72R, L73K, L76C

[23] = target: T23, PUM1 PUF domain R2-RKG N899R + Y900K + Q903G (UniProt Q14671)
T23 sequence: T1 sequence with L72R, L73K, L76G

[24] = target: T24, PUM1 PUF domain R2-RKV N899R + Y900K + Q903V (UniProt Q14671)
T24 sequence: T1 sequence with L72R, L73K, L76V

[25] = target: T25, PUM1 PUF domain R2-RKW N899R + Y900K + Q903W (UniProt Q14671)
T25 sequence: T1 sequence with L72R, L73K, L76W

[26] = target: T26, PUM1 PUF domain R2-RRA N899R + Y900R + Q903A (UniProt Q14671)
T26 sequence: T1 sequence with L72R, L73R, L76A

[27] = target: T27, PUM1 PUF domain R2-RRC N899R + Y900R + Q903C (UniProt Q14671)
T27 sequence: T1 sequence with L72R, L73R, L76C

[28] = target: T28, PUM1 PUF domain R2-RRG N899R + Y900R + Q903G (Homo sapiens) (UniProt Q14671)
T28 sequence: T1 sequence with L72R, L73R, L76G

[29] = target: T29, PUM1 PUF domain R2-RRH N899R + Y900R + Q903H (UniProt Q14671)
T29 sequence: T1 sequence with L72R, L73R, L76H

[30] = target: T30, PUM1 PUF domain R2-RRM N899R + Y900R + Q903M (UniProt Q14671)
T30 sequence: T1 sequence with L72R, L73R, L76M

[31] = target: T31, PUM1 PUF domain R2-RRQ N899R + Y900R (UniProt Q14671)
T31 sequence: T1 sequence with L72R, L73R, L76Q

[32] = target: T32, PUM1 PUF domain R2-RRS N899R + Y900R + Q903S (Homo sapiens) (UniProt Q14671)
T32 sequence: T1 sequence with L72R, L73R, L76S

[33] = target: T33, PUM1 PUF domain R2-RRT N899R + Y900R + Q903T (UniProt Q14671)
T33 sequence: T1 sequence with L72R, L73R, L76T

[34] = target: T34, PUM1 PUF domain R2-RRV N899R + Y900R + Q903V (Homo sapiens) (UniProt Q14671)
T34 sequence: T1 sequence with L72R, L73R, L76V

[35] = target: T35, PUM1 PUF domain R2-RTS N899R + Y900T + Q903S (UniProt Q14671)
T35 sequence: T1 sequence with L72R, L73T, L76S

[36] = target: T36, PUM1 PUF domain R2-RVN N899R + Y900V + Q903N (UniProt Q14671)
T36 sequence: T1 sequence with L72R, L73V, L76N

[37] = target: T37, PUM1 PUF domain R2-RVT N899R + Y900V + Q903T (UniProt Q14671)
T37 sequence: T1 sequence with L72R, L73V, L76T

[38] = target: T38, PUM1 PUF domain R2-SIP N899S + Y900I + Q903P (UniProt Q14671)
T38 sequence: T1 sequence with L72S, L73I, L76P

[39] = target: T39, PUM1 PUF domain R2-TFG N899T + Y900F + Q903G (UniProt Q14671)
T39 sequence: T1 sequence with L72T, L73F, L76G

[40] = target: T40, PUM1 PUF domain R2-VFR N899V + Y900F + Q903R (Homo sapiens) (UniProt Q14671)
T40 sequence: T1 sequence with L72V, L73F, L76R

[41] = target: T41, PUM1 PUF domain R2-VFV N899V + Y900F + Q903V (UniProt Q14671)
T41 sequence: T1 sequence with L72V, L73F, L76V

[42] = target: T42, PUM1 PUF domain R2-VWP N899V + Y900W + Q903P (Homo sapiens) (UniProt Q14671)
T42 sequence: T1 sequence with L72V, L73W, L76P

[43] = target: T43, PUM1 PUF domain R2-VWW N899V + Y900W + Q903W (UniProt Q14671)
T43 sequence: T1 sequence with L72V, L73W, L76W

[44] = target: T44, PUM1 PUF domain R2-VYL N899V + Q903L (UniProt Q14671)
T44 sequence: T1 sequence with L72V, L73Y

[45] = target: T45, PUM1 PUF domain R2-VYP N899V + Q903P (UniProt Q14671)
T45 sequence: T1 sequence with L72V, L73Y, L76P

GGCUAGAACUAGUGGAUCCCCCGGCGCCCGGCGGCUCGAGCCCGGGUAAGUGUAAACAGUCUGCAUGCCGCCGGGCGCCAUGCCUGCAGGUCGACUCUAGAAAACAUG
binding signal (log2 enrichment (interaction score)) [1]: < -10.9
binding signal (log2 enrichment (interaction score)) [2]: < -8.4
binding signal (log2 enrichment (interaction score)) [3]: -1.61
binding signal (log2 enrichment (interaction score)) [4]: < -8.76
binding signal (log2 enrichment (interaction score)) [5]: < -8.93
binding signal (log2 enrichment (interaction score)) [6]: < -9.63
binding signal (log2 enrichment (interaction score)) [7]: < -5.9
binding signal (log2 enrichment (interaction score)) [8]: < -6.85
binding signal (log2 enrichment (interaction score)) [9]: < -6.15
binding signal (log2 enrichment (interaction score)) [10]: < -6.57
binding signal (log2 enrichment (interaction score)) [11]: -1.73
binding signal (log2 enrichment (interaction score)) [12]: -0.29
binding signal (log2 enrichment (interaction score)) [13]: < -8.16
binding signal (log2 enrichment (interaction score)) [14]: < -8.27
binding signal (log2 enrichment (interaction score)) [15]: < -7.83
binding signal (log2 enrichment (interaction score)) [16]: < -6.57
binding signal (log2 enrichment (interaction score)) [17]: < -5.62
binding signal (log2 enrichment (interaction score)) [18]: -1.36
binding signal (log2 enrichment (interaction score)) [19]: < -6.75
binding signal (log2 enrichment (interaction score)) [20]: < -8.69
binding signal (log2 enrichment (interaction score)) [21]: < -7.83
binding signal (log2 enrichment (interaction score)) [22]: < -6.06
binding signal (log2 enrichment (interaction score)) [23]: < -6.15
binding signal (log2 enrichment (interaction score)) [24]: < -7.2
binding signal (log2 enrichment (interaction score)) [25]: < -7.54
binding signal (log2 enrichment (interaction score)) [26]: < -9.49
binding signal (log2 enrichment (interaction score)) [27]: < -8.44
binding signal (log2 enrichment (interaction score)) [28]: -3.57
binding signal (log2 enrichment (interaction score)) [29]: < -7.48
binding signal (log2 enrichment (interaction score)) [30]: < -7
binding signal (log2 enrichment (interaction score)) [31]: < -7.1
binding signal (log2 enrichment (interaction score)) [32]: -3.02
binding signal (log2 enrichment (interaction score)) [33]: < -8.11
binding signal (log2 enrichment (interaction score)) [34]: -7.19
binding signal (log2 enrichment (interaction score)) [35]: < -8.7
binding signal (log2 enrichment (interaction score)) [36]: < -7.51
binding signal (log2 enrichment (interaction score)) [37]: < -7.6
binding signal (log2 enrichment (interaction score)) [38]: < -6.09
binding signal (log2 enrichment (interaction score)) [39]: < -6.44
binding signal (log2 enrichment (interaction score)) [40]: -1.45
binding signal (log2 enrichment (interaction score)) [41]: < -6.31
binding signal (log2 enrichment (interaction score)) [42]: < -6.19
binding signal (log2 enrichment (interaction score)) [43]: < -7.23
binding signal (log2 enrichment (interaction score)) [44]: < -6.78
binding signal (log2 enrichment (interaction score)) [45]: < -7.75
